These are yes or no findings as the source states them, for the method shown. A result given as binding can be weak or reduced; the word gives no strength. Where a sequence is shown, tags or fusion partners need not be part of it. For part of these data: Binding seen in cells or lysates may run through a third protein.

In test [1] the target is OsMYB22 (yeast two-hybrid bait fusion) (rice). Put plainly: two-hybrid; OsPCF5 in prey vector pGAD-T7, MYB in bait vector pGBK-T7, yeast AH109; growth on SD-Leu-Trp-His-Ade.
For test [2], the target named is OsMYB30 (yeast two-hybrid bait fusion) (rice). Put plainly: two-hybrid; OsPCF5 in prey vector pGAD-T7, MYB in bait vector pGBK-T7, yeast AH109; growth on SD-Leu-Trp-His-Ade with 5 mM 3-AT.
Test [3] addresses OsMYB30 (luciferase complementation fusion) (rice). Put plainly: split reporter; luciferase complementation assay (LCA), NLuc and CLuc fusions co-infiltrated into N. benthamiana leaves, signal read 48 h after infiltration.
Test [4] has as its target OsMYB22 (luciferase complementation fusion) (rice). Described as above.
A further test deals with nYFP-OsMYB30 (rice). In words: split reporter; BiFC, nYFP-OsMYBs and OsPCF5-cYFP co-infiltrated into N. benthamiana leaves, confocal microscopy after 48 h.
A further test concerns the target nYFP-OsMYB22 (rice). Described as above.

B1: OsPCF5 (yeast two-hybrid prey fusion) (protein, UniProt Q8LT07 1-458)
chain: MGDAGGHSHHHQHGFQPQLLSFGGVGHHHHLHQFTAQPQPPAASHTRGRGGGGEIVPATTTPRSRGGGGGGGGEIVAVQGGHIVRSTGRKDRHSKVCTARGPRDRRVRLSAHTAIQFYDVQDRLGYDRPSKAVDWLIKNAKDAIDKLDVLPAWQPTAGGAGAGNAAAPPSSSTHPDSAENSDDQAQAITVAHTAFDFAGGGSGGTSFLPPSLDSDAIADTIKSFFPMGGTAGGEASSSTTAAQSSAMGFQSYTPDLLSRTGSQSQELRLSLQSLPDPMFHHQQHRHGGGGGGGNGTTQQALFSGAANYSFGGGAMWATEQQAQNQRMLPWNVPDPGGGGGAAYLFNVSQQAAHMQAAAAALGGHQSQFFFQRGPLQSSNQPSERGWPETVEADNQMSHHQGGLSPSVSAAIGFAAPGIGFSGFRLPARIQGDEEHNGGGGGNGDKPPPPSSVSSASHH
Take B1: the binding result in test [1] and in test [2] was “binds” each time.

B2: OsPCF5 (luciferase complementation fusion) (protein, UniProt Q8LT07 1-458)
chain: B1 chain
In the case of B2, the binding entry in test [3] and in test [4] was “binds” in each case.

B3: OsPCF5-cYFP (protein, UniProt Q8LT07 1-458)
chain: B1 chain
B3: the binding result with nYFP-OsMYB30 (rice) and with nYFP-OsMYB22 (rice) was “binds” each time.

For the origin of these results see article PMC10960409.
